{"source": "patent US20160310523A1", "about": "“USE OF OXYGEN-CONTAINING GAS SOURCE” (China Medical University, priority 2015, published 2016)", "tested_on": "blood-brain barrier", "assay": "Forced swim test, EBD extravasation after drug treatment", "assay_type": "in vivo, rats", "conditions": "MK801 1 mg/kg i.p.; RU486 10 mg/kg s.c.; FIG. 4A", "note": "At least one compound was matched to its structure with a doubt left."}
{"smiles": "CC#C[C@]1(O)CC[C@H]2[C@@H]3CCC4=CC(=O)CCC4=C3[C@@H](c3ccc(N(C)C)cc3)C[C@@]21C", "note": "[RU486]", "values": [{"measurement": "effect on blood-brain barrier opening during the forced swim test", "result": "neither MK801 nor RU486 affect"}]}
